Our source for the binding values is paper PMC3953376.

Chains of the proteins cited; added tags and fusions are not shown.
UniProt P17980: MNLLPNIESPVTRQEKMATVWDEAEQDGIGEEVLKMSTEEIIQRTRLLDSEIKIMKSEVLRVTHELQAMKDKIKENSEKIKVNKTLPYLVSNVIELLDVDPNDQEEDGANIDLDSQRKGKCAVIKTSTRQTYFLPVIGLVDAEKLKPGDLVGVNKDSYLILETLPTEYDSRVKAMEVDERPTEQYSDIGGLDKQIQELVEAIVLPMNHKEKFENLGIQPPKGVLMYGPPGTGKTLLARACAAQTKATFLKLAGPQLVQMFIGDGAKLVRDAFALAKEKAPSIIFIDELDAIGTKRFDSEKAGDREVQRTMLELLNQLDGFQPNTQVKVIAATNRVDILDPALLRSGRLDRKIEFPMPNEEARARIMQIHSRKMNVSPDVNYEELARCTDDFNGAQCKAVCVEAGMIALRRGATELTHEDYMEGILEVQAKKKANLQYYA
UniProt P35998: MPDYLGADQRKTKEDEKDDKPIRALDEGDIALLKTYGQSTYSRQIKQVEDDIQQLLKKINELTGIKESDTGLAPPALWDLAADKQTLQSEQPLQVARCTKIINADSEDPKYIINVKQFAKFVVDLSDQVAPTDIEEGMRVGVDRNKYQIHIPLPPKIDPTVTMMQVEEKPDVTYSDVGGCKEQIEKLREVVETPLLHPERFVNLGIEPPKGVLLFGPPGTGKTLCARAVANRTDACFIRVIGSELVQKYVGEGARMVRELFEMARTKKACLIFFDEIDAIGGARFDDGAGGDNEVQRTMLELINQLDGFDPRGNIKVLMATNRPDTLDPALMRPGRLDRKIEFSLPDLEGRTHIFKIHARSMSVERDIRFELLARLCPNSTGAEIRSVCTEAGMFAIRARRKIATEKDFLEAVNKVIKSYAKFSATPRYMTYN
UniProt P62195: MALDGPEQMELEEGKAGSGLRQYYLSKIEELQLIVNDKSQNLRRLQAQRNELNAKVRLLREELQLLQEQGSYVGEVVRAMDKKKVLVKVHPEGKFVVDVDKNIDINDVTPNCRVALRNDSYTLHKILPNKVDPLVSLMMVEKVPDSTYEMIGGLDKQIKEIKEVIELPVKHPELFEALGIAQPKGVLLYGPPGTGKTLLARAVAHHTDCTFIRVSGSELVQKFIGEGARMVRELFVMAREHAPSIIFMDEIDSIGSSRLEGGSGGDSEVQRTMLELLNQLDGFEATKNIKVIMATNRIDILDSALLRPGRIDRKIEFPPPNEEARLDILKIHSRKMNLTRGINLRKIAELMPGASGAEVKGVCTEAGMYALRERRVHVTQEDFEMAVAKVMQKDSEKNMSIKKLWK
UniProt O94992: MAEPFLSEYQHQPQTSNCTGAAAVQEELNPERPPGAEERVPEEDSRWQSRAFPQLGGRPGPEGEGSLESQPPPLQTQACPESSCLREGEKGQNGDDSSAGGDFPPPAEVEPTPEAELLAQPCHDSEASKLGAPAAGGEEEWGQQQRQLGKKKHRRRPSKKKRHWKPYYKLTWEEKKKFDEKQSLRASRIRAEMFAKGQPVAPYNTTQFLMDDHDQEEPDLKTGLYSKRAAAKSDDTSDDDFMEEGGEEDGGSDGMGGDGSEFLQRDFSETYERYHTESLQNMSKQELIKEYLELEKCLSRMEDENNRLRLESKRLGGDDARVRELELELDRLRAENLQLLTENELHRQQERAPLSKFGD
UniProt P50750: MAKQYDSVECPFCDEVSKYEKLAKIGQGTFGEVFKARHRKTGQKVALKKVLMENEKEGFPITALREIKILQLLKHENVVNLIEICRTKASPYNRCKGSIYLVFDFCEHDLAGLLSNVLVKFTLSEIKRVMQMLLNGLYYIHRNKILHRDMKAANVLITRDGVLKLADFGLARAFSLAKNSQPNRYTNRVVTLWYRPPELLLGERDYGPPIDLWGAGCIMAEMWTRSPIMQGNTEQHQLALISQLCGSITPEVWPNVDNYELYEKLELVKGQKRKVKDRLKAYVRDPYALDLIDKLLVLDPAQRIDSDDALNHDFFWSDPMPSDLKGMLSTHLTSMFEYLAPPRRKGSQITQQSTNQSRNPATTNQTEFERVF

These are yes or no findings as the source states them, for the method shown. Binding seen in cells or lysates may run through a third protein. Some binding calls cover weakened binding; strength is not graded here.

Assay [1] addresses endogenous S6a (human (endogenous in HeLa)) (UniProt P17980). As to the kind of experiment: co-IP; endogenous proteins, HeLa cells lysed in NP-40 lysis buffer; IP with antibody against Sug1, S7 or S6a, immunoblot for Hexim, CDK9 or Ser5p RNA pol II; mouse IgG as negative control.
Assay [2] deals with endogenous S7 (human (endogenous in HeLa)) (UniProt P35998). The description is as above.
Assay [3] deals with endogenous Sug1 (human (endogenous in HeLa)) (UniProt P62195). The assay is described as above.
Another assay has as its target Flag-Hexim1 (UniProt O94992). Nature of the assay: co-IP; HeLa cells co-transfected with Myc-tagged ATPase and Flag-Hexim or HA-CDK9; RIPA lysates; IP with Flag beads or HA beads, immunoblot for Myc; mouse IgG as negative control. In general terms: Immunoblotting shows a protein as a band on a membrane.
For a further assay, the target named is HA-CDK9 (UniProt P50750). The description is as above.

Regarding “endogenous Hexim (from UniProt O94992 1-359)”, the binding entry in assay [1], in assay [2] and in assay [3] was “binds” each time.

In the case of Myc-S7 (from UniProt P35998 1-433), the binding result with Flag-Hexim1 and with HA-CDK9 was “binds” in each case.

As for Myc-Sug1 (from UniProt P62195 1-406), the binding result with Flag-Hexim1 and with HA-CDK9 was “binds” throughout.

Regarding Myc-S6a (from UniProt P17980 1-439), the binding entry with Flag-Hexim1 and with HA-CDK9 was “binds” in each case.

As to “endogenous CDK9 (from UniProt P50750 1-372)”, the binding result in assay [2] is listed as “binds”.
